Where a name gives a salt, the structure may show the parent alone. The list shows a part of the results. Hit calls seldom repeat between salt and free forms of one compound.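 In K562 cells expressing nanoluciferase-fused kinases, luminescence was recorded at 4 h intervals between 2 and 18 h, normalized as percent of control with DMSO at 100% and a positive control at 0%. A significant (2 sigma) signal drop marks a time point as decreased. The authors' rule for a hit is not shown and takes in more than the number of time points.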
Biological target: RAF1_S257L (clone: RAF1_mut) (UniProt P04049)
Experiment: number of time points (of 5) at which kinase-Nluc abundance scored as decreased, DMSO-normalised (count); higher = more persistent destabilization
Settings: K562; 2-18 h

Protein sequences, listed by entry. Tags and fused reporters are not part of them.
UniProt P07949, whole entry, looked up: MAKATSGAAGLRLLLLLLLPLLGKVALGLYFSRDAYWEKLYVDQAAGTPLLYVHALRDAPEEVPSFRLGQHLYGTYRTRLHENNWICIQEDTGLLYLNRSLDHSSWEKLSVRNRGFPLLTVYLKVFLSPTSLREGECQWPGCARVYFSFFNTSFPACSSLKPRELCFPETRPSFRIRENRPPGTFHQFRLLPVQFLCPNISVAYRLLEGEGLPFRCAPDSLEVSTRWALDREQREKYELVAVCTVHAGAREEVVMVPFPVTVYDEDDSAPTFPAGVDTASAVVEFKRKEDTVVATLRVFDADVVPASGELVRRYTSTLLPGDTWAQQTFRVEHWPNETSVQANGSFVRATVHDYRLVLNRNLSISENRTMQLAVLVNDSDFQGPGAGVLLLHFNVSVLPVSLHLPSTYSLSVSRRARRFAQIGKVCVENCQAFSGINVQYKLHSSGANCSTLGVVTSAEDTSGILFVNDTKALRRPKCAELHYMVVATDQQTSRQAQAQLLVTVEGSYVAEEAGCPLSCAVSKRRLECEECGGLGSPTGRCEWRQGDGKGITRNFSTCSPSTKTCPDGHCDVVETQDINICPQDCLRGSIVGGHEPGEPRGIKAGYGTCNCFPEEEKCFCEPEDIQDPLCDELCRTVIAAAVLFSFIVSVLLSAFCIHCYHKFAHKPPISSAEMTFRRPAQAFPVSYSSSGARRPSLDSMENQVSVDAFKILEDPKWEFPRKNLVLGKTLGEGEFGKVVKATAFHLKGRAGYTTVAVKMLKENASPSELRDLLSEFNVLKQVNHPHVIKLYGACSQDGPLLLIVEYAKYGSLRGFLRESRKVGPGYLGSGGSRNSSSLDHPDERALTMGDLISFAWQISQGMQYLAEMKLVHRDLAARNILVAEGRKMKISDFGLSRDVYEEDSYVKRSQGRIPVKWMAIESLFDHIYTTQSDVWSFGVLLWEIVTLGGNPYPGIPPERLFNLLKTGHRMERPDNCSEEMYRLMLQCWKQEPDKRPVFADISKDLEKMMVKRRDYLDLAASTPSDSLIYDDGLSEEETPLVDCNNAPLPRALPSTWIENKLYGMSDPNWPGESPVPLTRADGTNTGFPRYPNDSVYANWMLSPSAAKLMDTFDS

Structure (SMILES) | number of time points
CCC[C@H](C)Oc1nc(N)c2[nH]c(=O)n(CCCCCN3CCCCC3)c2n1 (10 µM) | 0
CC(C)(Oc1ccc(Cl)cc1)C(=O)Nc1ccc(OCc2ccc(C#N)cc2)cc1 [AMPK activator 4] (10 µM) | 0
Cc1cc(N2CCOCC2)ccc1Nc1nc(NC2CCCCC2)c2[nH]cnc2n1 (10 µM) | 0
CC(ONC(=O)c1cc(C(F)(F)F)cc(C(F)(F)F)c1)C(=O)Nc1ccc(Cl)cc1 (centres undefined) (2.5 µM) | 0
O=S(=O)(c1ccc(O)cc1O)N1Cc2cc(O)cc(O)c2C1 (10 µM) | 0
CN1CCN(c2ccc(-n3cc(-c4ccncc4OCC4CCNCC4)cn3)cc2)CC1 [MELK-8a (hydrochloride)] (10 µM) | 4
CCCCC(=O)OCC(=O)[C@]1(O)Cc2c(O)c3c(c(O)c2[C@@H](O[C@H]2C[C@H](NC(=O)C(F)(F)F)[C@H](O)[C@H](C)O2)C1)C(=O)c1c(OC)cccc1C3=O [Valrubicin] (10 µM) | 0
CC(C)=CCC[C@](C)(O[C@@H]1O[C@H](CO[C@@H]2O[C@H](CO)[C@@H](O)[C@H](O)[C@H]2O)[C@@H](O)[C@H](O)[C@H]1O)[C@H]1CC[C@]2(C)[C@@H]1[C@H](O)C[C@@H]1[C@@]3(C)CC[C@H](O[C@@H]4O[C@H](CO)[C@@H](O)[C@H](O)[C@H]4O[C@@H]4O[C@H](CO)[C@@H](O)[C@H](O)[C@H]4O)C(C)(C)[C@@H]3CC[C@]12C [Ginsenoside Rb1] (10 µM) | 0
O=c1cc(-c2ccc(O[C@@H]3O[C@H](CO)[C@@H](O)[C@H](O)[C@H]3O)cc2)oc2cc(O)c([C@@H]3O[C@H](CO)[C@@H](O)[C@H](O)[C@H]3O[C@@H]3OC[C@H](O)[C@H](O)[C@H]3O)c(O)c12 [Vaccarin] (10 µM) | 0
Nc1ccc(Sc2nc3ccccc3s2)c(Cl)c1 [KRAS inhibitor-9] (10 µM) | 0
COc1ccc2cc1Oc1ccc(cc1)C[C@H]1c3cc(c(OC)cc3CCN1C)Oc1c(O)c(OC)cc3c1[C@H](C2)N(C)CC3 [Fangchinoline] (2.5 µM) | 0
Nc1nccc(Oc2ccc3c(C(=O)Nc4cccc(C(F)(F)F)c4)cccc3c2)n1 (10 µM) | 0
CN1C(=O)N[C@@H](Cc2c[nH]c3c(Cl)cccc23)C1=O [Necrostatin 2 (S enantiomer)] (10 µM) | 0
Cc1ncc(-c2cc(F)c(O)c(F)c2)cc1-c1cc(F)c(O)c(F)c1 (10 µM) | 0
N=C(NC(=N)N1CCCC1)Nc1ccc(OC(F)(F)F)cc1 (10 µM) | 0

Biological target: RET (UniProt P07949)
Experiment: as above
Settings: K562; 2-18 h

Structure (SMILES) | number of time points
COc1ccc(Br)c(C=O)c1O [6-Bromo-2-hydroxy-3-methoxybenzaldehyde] (10 µM) | 0
O=C1C=CC2=C3c4cc(O)c(O)cc4CC3(O)COC2=C1O (centres undefined) [Hematein] (10 µM) | 0
Cc1cccc(CC(=O)N2CCc3c2ccc(-c2cn(C)c4ncnc(N)c24)c3F)n1 (10 µM) | 0
COCCOc1cnc2ccn([C@H](C)c3nnc4c(F)cc(-c5cnn(C)c5)cn34)c(=O)c2c1 (10 µM) | 0
Cn1cc(C2=C(c3ccc(Cl)cc3Cl)C(=O)NC2=O)c2ccccc21 (10 µM) | 0
COc1cc(N2CCC(N3CCN(C)CC3)CC2)ccc1Nc1ncnc(Nc2ccccc2S(=O)(=O)C(C)C)n1 (10 µM) | 0
COc1c(Nc2ncc(Cl)c(N[C@H]3[C@@H](C(N)=O)[C@@H]4C=C[C@H]3C4)n2)ccc2c1CC[C@@H](N1CCOCC1)CC2 (10 µM) | 0
Cc1ccc(NC(=O)N2CCN(c3nc(N)nc4sc(-c5cccnc5)nc34)CC2)cc1 [PI4KIII beta inhibitor 3] (10 µM) | 0
CNc1cc2c(Nc3cccc(Br)c3)ncnc2cn1 (10 µM) | 0
CC(C)n1c(CO)nc2c(F)cc(-c3nc(Nc4ccc(CN5CCNCC5)cn4)ncc3F)cc21 (10 µM) | 0
CN1CCC(Nc2ccc(C(=O)Nc3cc(-c4ccc5c(c4)OCO5)[nH]n3)cc2)CC1 (10 µM) | 0
CNC(=O)CN1CCC(Oc2cc3c(Nc4cccc(Cl)c4F)ncnc3cc2OC)CC1 [Sapitinib] (10 µM) | 0
O=C(O)c1c[nH]c2cc(Cl)c(-c3ccc(C4(O)CCC4)cc3)cc12 (10 µM) | 0
COc1cc(N2CCC(O)CC2)ccc1Nc1nc(Nc2ccccc2S(=O)(=O)C(C)C)c2[nH]cnc2n1 (10 µM) | 0
O=c1c(O)c(-c2ccc(O)c(O)c2)oc2cc(O)c(O)c(O)c12 [Quercetagetin] (10 µM) | 0
Cc1ncsc1-c1ccc(CNC(=O)[C@@H]2C[C@@H](O)CN2C(=O)[C@@H](NC(=O)COCCOc2ccc(-c3cc(Nc4ccc(OC(F)(F)F)cc4)ncn3)cc2)C(C)(C)C)cc1 (2.5 µM) | 1
COc1cc(Nc2ccnc3ccc(Br)cc23)cc(OC)c1OC (2.5 µM) | 0
Cc1ccc2c(NS(=O)(=O)c3ccccc3Cl)cccc2c1Oc1ncccc1-c1ccnc(N[C@H]2CCCNC2)n1 (2.5 µM) | 0
CC(C)c1cc2c(c(O)c1O)[C@@]13CCCC(C)(C)[C@@H]1C[C@@H]2OC3=O [Carnosol] (2.5 µM) | 0
Cc1nc2c(NCc3cccc(S(C)(=O)=O)c3)nccn2c1-c1ccc(O)c(F)c1 (10 µM) | 0

Structure (SMILES) | number of time points
CC(C)n1cnc2c(Nc3cccc(Cl)c3)nc(N[C@H]3CCCC[C@@H]3N)nc21 (2.5 µM) | 0
O=c1cc(N2CCOCC2)oc2c(-c3cccc4c3sc3ccccc34)cccc12 (10 µM) | 0
C[C@@H]1COC(Nc2ccc3ncnc(Nc4ccc(OCc5nccs5)c(Cl)c4)c3c2)=N1 [Varlitinib] (10 µM) | 0
Cc1cncc2cccc(S(=O)(=O)N3CCCNC[C@@H]3C)c12 [H-1152 (dihydrochloride)] (10 µM) | 0
CCC[C@H](C)Oc1nc(N)c2[nH]c(=O)n(CCCCCN3CCCCC3)c2n1 (10 µM) | 0
CC(C)(Oc1ccc(Cl)cc1)C(=O)Nc1ccc(OCc2ccc(C#N)cc2)cc1 [AMPK activator 4] (10 µM) | 0
Cc1cc(N2CCOCC2)ccc1Nc1nc(NC2CCCCC2)c2[nH]cnc2n1 (10 µM) | 0
CC(ONC(=O)c1cc(C(F)(F)F)cc(C(F)(F)F)c1)C(=O)Nc1ccc(Cl)cc1 (centres undefined) (2.5 µM) | 0
O=S(=O)(c1ccc(O)cc1O)N1Cc2cc(O)cc(O)c2C1 (10 µM) | 0
CN1CCN(c2ccc(-n3cc(-c4ccncc4OCC4CCNCC4)cn3)cc2)CC1 [MELK-8a (hydrochloride)] (10 µM) | 0
CCCCC(=O)OCC(=O)[C@]1(O)Cc2c(O)c3c(c(O)c2[C@@H](O[C@H]2C[C@H](NC(=O)C(F)(F)F)[C@H](O)[C@H](C)O2)C1)C(=O)c1c(OC)cccc1C3=O [Valrubicin] (10 µM) | 2
CC(C)=CCC[C@](C)(O[C@@H]1O[C@H](CO[C@@H]2O[C@H](CO)[C@@H](O)[C@H](O)[C@H]2O)[C@@H](O)[C@H](O)[C@H]1O)[C@H]1CC[C@]2(C)[C@@H]1[C@H](O)C[C@@H]1[C@@]3(C)CC[C@H](O[C@@H]4O[C@H](CO)[C@@H](O)[C@H](O)[C@H]4O[C@@H]4O[C@H](CO)[C@@H](O)[C@H](O)[C@H]4O)C(C)(C)[C@@H]3CC[C@]12C [Ginsenoside Rb1] (10 µM) | 0
O=c1cc(-c2ccc(O[C@@H]3O[C@H](CO)[C@@H](O)[C@H](O)[C@H]3O)cc2)oc2cc(O)c([C@@H]3O[C@H](CO)[C@@H](O)[C@H](O)[C@H]3O[C@@H]3OC[C@H](O)[C@H](O)[C@H]3O)c(O)c12 [Vaccarin] (10 µM) | 0
Nc1ccc(Sc2nc3ccccc3s2)c(Cl)c1 [KRAS inhibitor-9] (10 µM) | 0
COc1ccc2cc1Oc1ccc(cc1)C[C@H]1c3cc(c(OC)cc3CCN1C)Oc1c(O)c(OC)cc3c1[C@H](C2)N(C)CC3 [Fangchinoline] (2.5 µM) | 0
Nc1nccc(Oc2ccc3c(C(=O)Nc4cccc(C(F)(F)F)c4)cccc3c2)n1 (10 µM) | 0
CN1C(=O)N[C@@H](Cc2c[nH]c3c(Cl)cccc23)C1=O [Necrostatin 2 (S enantiomer)] (10 µM) | 0
Cc1ncc(-c2cc(F)c(O)c(F)c2)cc1-c1cc(F)c(O)c(F)c1 (10 µM) | 0
N=C(NC(=N)N1CCCC1)Nc1ccc(OC(F)(F)F)cc1 (10 µM) | 0

Source: the supplement of paper PMC12823440, “Inhibitors supercharge kinase turnover through native proteolytic circuits” (Nature, 2025)
